The supplement of paper PMC9254222
Where a name gives a salt, the structure may show the parent alone. In all, about 1,100 compounds were measured (“Wnt reporter firefly/Renilla luciferase ratio relative to plate median”: median about 1.1, highest 2% from about 1.6 on). Only a part is listed here, and it is no random draw.

Test system: HEK293T (UBE3A T485A transfected, BAR Wnt reporter)
Assay: Wnt reporter firefly/Renilla luciferase ratio relative to plate median (fold (linear ratio)); higher = more Wnt/beta-catenin reporter activation
Conditions: 24 h
How it was run: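 Chemicals were robotically dosed at 0.01–100 uM for 24 h onto HEK293T cells, starting four hours after transfection with a BAR firefly luciferase Wnt reporter, TK-Renilla and an expression plasmid. The cells had been plated at 4500 cells/well in DMEM with 10% FBS at 37°C and 5% CO2. Following a Dual-Glo luciferase readout, the firefly/Renilla ratio served as the Wnt activity measure and raw Renilla as the cell health measure, both median-centred on each plate. Each value is the mean of four biological replicates.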

SMILES | Wnt reporter firefly/Renilla luciferase ratio (concentration: 0.1 uM) | Wnt reporter firefly/Renilla luciferase ratio (concentration: 1 uM) | Wnt reporter firefly/Renilla luciferase ratio (concentration: 10 uM) | Wnt reporter firefly/Renilla luciferase ratio (concentration: 100 uM) | Wnt reporter firefly/Renilla luciferase ratio (concentration: 0.01 uM)
N#CCCCCC#N [Hexanedinitrile] | 1.07 | 1.58 | 1.13 | 0.979 | –
CCCC1COC(Cn2cncn2)(c2ccc(Cl)cc2Cl)O1 (stereo not given) [Propiconazole] | 1.03 | 1.17 | 0.78 | – | 0.957
O=S1OCC2C(CO1)C1(Cl)C(Cl)=C(Cl)C2(Cl)C1(Cl)Cl (stereo not given) [Endosulfan] | 1.05 | 0.98 | 0.946 | 0.756 | 0.727
C#CCN1C(=O)COc2cc(F)c(N3C(=O)C4=C(CCCC4)C3=O)cc21 [Flumioxazin] | 0.916 | 1.25 | 1.1 | 0.717 | 0.966
COS(=O)(=O)OC [Dimethyl sulfate] | 1.04 | 0.948 | 1.09 | 0.389 | –
CCOc1nc(F)cc2nc(S(=O)(=O)Nc3c(Cl)cccc3Cl)nn12 [Diclosulam] | 1.38 | 0.954 | 1.05 | 0.892 | 1.4
COc1cccc(C(=O)NN(C(=O)c2cc(C)cc(C)c2)C(C)(C)C)c1C [Methoxyfenozide] | 1.11 | 1.06 | 1.04 | 0.281 | 0.986
OCCCl [2-Chloroethanol] | 1.16 | 1.06 | 0.986 | 1.4 | –
O=C(O)C(F)(F)C(F)(F)C(F)(F)C(F)(F)C(F)(F)C(F)(F)F [Perfluoroheptanoic acid] | 0.82 | 1.02 | 0.932 | 0.483 | –
CC1=C(C(=O)Nc2ccccc2)SCCO1 [Carboxin] | 1.12 | 0.984 | 1.53 | 0.587 | 1.29
CCNc1nc(NC(C)C)nc(SC)n1 [Ametryn] | 0.725 | 0.813 | 1.29 | 0.791 | 0.686
